# Screening data

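Luminescence from an EWS-FLI1 target-promoter (NR0B1) reporter, set against a CMV-promoter reporter, two days after silencing single genes in TC32 Ewing sarcoma cells. Each siRNA was applied at 20 nM. A z-score of the log NR0B1-over-CMV signal, less the median of siRNAs with the same seed; more negative means a stronger specific loss of the NR0B1 reporter.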

This is part of the screen; most of the strongest results are not listed here. Sequences are the guide (antisense) strand, without overhang.

| Sequence | target gene | seed-corrected z-score |
|---|---|---|
| `AUUAGGACAAGUAGGAUGC` | REST | 0.5823 |
| `AGAGAGACAUUGAUCAGCG` | C19orf35 | -1.089 |
| `UAUCUAAACAUAUUCUUCC` | UBE2N | -0.03412 |
| `UUUGGGUCAAUGGACUUCC` | SPAST | -0.2958 |
| `UAAUUCAUUGGUUCUUUUG` | LOC730338 | 0.1321 |
| `UCUUUGCCCAGAACCACAG` | DAGLA | 0.867 |
| `UUACUUCUGAGAUCAAUUC` | NACAD | 0.2644 |
| `UCUGCUAGCAUUUGAAUCC` | CYTIP | -0.2894 |
| `UUUGAUGUAGGAGACCUCC` | ZAN | -0.42 |
| `AUCGAGUUUUCUGAAAGGC` | NT5DC2 | 0.2332 |
| `AUAUAUACUUCUGACAUCU` | WNT5A | -0.8388 |
| `UGUACUUCCAGGCAAUCCC` | COL24A1 | 1.106 |
| `AUGUCUUUACGAGCAGUGG` | MUCL1 | -0.7682 |
| `UUCCGAUCUAUGUACUCGC` | ZDHHC23 | -0.2328 |
| `UCAGUUAGACGGAUCUCCU` | CPPED1 | -0.03821 |
| `AGACUUUAAACAUUCGACG` | ITFG1 | -0.2953 |
| `UAUAUUCCCGAUUUAUGCC` | TMEM132B | 0.1089 |
| `AAAGUUCCUUCAGUAGAUC` | C9orf43 | 0.5212 |
| `UGUAUAAGAAGUUCAUAGC` | SLC46A3 | -0.331 |
| `UAUUCUAUUCCAUGGAGGG` | FCER1A | -0.4882 |
| `AAGGGAAUCAUGUAGGUCA` | SLC47A2 | -0.6844 |
| `UCAGAUGCUAUGUCACUGC` | ATP8B3 | 0.4462 |
| `UGGUGUUAUACUCCACUGC` | SEMA6A | -1.031 |
| `AGUCCAUUAUCAAAGAUGC` | NRDE2 | -0.2815 |
| `CACCUUCCAAGCCAACCUC` | STH | -1.095 |
| `AUAGGCUUGGGAGAUGUCG` | LRRC16B | 0.7464 |
| `UUUGGUUGUAUAACCACUC` | IQCK | 1.102 |
| `UCCAUACGCAGGUUGGUUG` | NOL8 | -0.1569 |
| `AACUGUUCCAGAAAUUCCC` | MIS18BP1 | -0.2453 |
| `UUCGGAAUUUUGACAGAUC` | TRPC1 | 0.3427 |
| `UUUAGAAUCAGGGCGUAAC` | MAT2A | 0.2189 |
| `UGCUGCAUCAUGGAGACUG` | SS18L1 | -1.824 |
| `UAUCUGAUUCUGGUUGAGG` | LRRC57 | -0.1255 |
| `UAACAUAAUGAUGAUCAUG` | OR6C65 | 0.1329 |
| `UUUAUAACUGGGUAUGGUG` | KIAA0319L | 0.4834 |
| `UCUUAUUAAAGCGUGACUG` | PWWP2A | 0.3408 |
| `UAUGAGUAUUUGUUGUUAC` | KCTD10 | -0.4051 |
| `AAUGGAAUAGGUGCACUCG` | SLC44A1 | 0.6172 |
| `UAAGCUUCCACCAUUGAAC` | CLEC4F | -0.07415 |
| `UUAGCACUAAGGGUUCGUC` | F9 | 0.01787 |
| `UCAACUAGUAGGUCCAUCA` | LOC392529 | 0.6074 |
| `UUUGCACUCACGCUCAAUG` | PRRG1 | 0.7079 |
| `UCUUUCUCAACUUGUCUCU` | GOLM1 | -1.102 |
| `UGAUCUCCUUGCGUAGAGC` | BATF | -0.2255 |
| `UACUCGAUGGAUGUAAUCC` | DDX47 | 0.3594 |
| `UUCCGUGUCAUCGUCAGUC` | KPNA6 | -0.1078 |
| `UGCUUUAGUACCACAUUUC` | RALBP1 | -0.1311 |
| `UUCCCUUUAUACUCGAUCA` | MRPL17 | 0.148 |
| `UUCGGUAUCCGGAACCCGU` | ANKRD20A3 | -0.2435 |
| `UAGGUAAUCUGUAACUGAC` | MTMR7 | -0.3143 |
| `AUGGUACUCAUCGAUGAGC` | TUBG1 | 1.025 |
| `UCCUUGACUCGAUAUUUGU` | MAGEA9 | -0.9876 |
| `UCUUCAUCCGUAAACACGC` | NKAIN4 | -1.231 |
| `AAAGUUCUUCUCGAACUGC` | LMBR1 | 0.2545 |
| `ACUGGUAAACAUUGUAUCC` | FGF21 | 0.9755 |
| `UGUUAUAUGAUUUAGCUAC` | CGA | -0.139 |
| `UUUAUUGAGAAAUACAUGG` | KRTAP11-1 | 0.4185 |
| `UAACUCAUUCCUCAUGUCC` | FOXR2 | -0.1692 |
| `UCGGAAACAGUGGAAGUUG` | RRAGC | 0.238 |
| `AACCCGACAUCCAAGACCC` | RPS28P4 | 1.878 |
| `UUCCAAUCAUUGCAUAUUC` | CFHR5 | -1.49 |
| `UUCACGGUGCUAUCUAUGC` | SLC20A1 | -0.7031 |
| `UGUGAUAACAGUCAGGUCU` | OPLAH | 0.276 |
| `UCACUCCAAAUUUCCACUC` | COMMD7 | -0.2029 |
| `UUGAGUUCACUUGUAAUUC` | SLC35E3 | -0.08268 |
| `UUAUCGUUAAACCUUCGCC` | ZNF337 | 0.6421 |
| `UUAUAUGCUUUCACAAACC` | FMNL2 | 1.337 |
| `UUGGUUGCAACCAGGCACC` | ACD | -1.49 |
| `AAUAACUCCAGUCUUGUAC` | FAM69A | 0.2884 |
| `UGAAUUUUCAAGAAGUUGC` | TBC1D28 | 1.343 |

Once more, the final 5:

{"sequence": "UUAUCGUUAAACCUUCGCC", "target gene": "ZNF337", "seed-corrected z-score": "0.6421"}
{"sequence": "UUAUAUGCUUUCACAAACC", "target gene": "FMNL2", "seed-corrected z-score": "1.337"}
{"sequence": "UUGGUUGCAACCAGGCACC", "target gene": "ACD", "seed-corrected z-score": "-1.49"}
{"sequence": "AAUAACUCCAGUCUUGUAC", "target gene": "FAM69A", "seed-corrected z-score": "0.2884"}
{"sequence": "UGAAUUUUCAAGAAGUUGC", "target gene": "TBC1D28", "seed-corrected z-score": "1.343"}

The results are deposited in PubChem (AID1159506; NCATS, 2015).